# Reference: patent US20030092616A1, “STAT6 activation gene” (priority 2001, published 2003)
# Tested on: STAT6
# Experiment: Screening compounds inhibiting promotion of STAT6 activity (STAT6 reporter activity)
# Assay type: cell-based
# Details: 30 μM, mouse IL-4 1 ng/ml, 6 h
# Experimental: NIH3T3 cells were seeded on 10% FBS containing IMDM medium in a 96-well cell culture plate to a final cell density of 1×10^4 cells/100 μl/well, and cultured for 24 hours at 37° C. in the presence of 5% CO2. Then, 30 ng of the plasmid containing the nucleotide encoding the STAT6 activation-promoting protein of SEQ ID NO: 3, 17, 19, 218, 432 or 472, or the nucleotide of SEQ ID NO: 64, and 100 ng of the luciferase reporter plasmid having the STAT6 response sequence were cotransfected into the cells in a well using FuGENE 6. […] After 30 min of culture at 37° C., followed by 6 hours of culture with addition of mouse IL-4 to a final concentration of 1 ng/ml, the reporter activity was measured using PIKKA GENE LT2.0.
smiles,measurement,setting,value
CN[C@@H]1C[C@H]2O[C@@](C)([C@@H]1OC)n1c3ccccc3c3c4c(c5c6ccccc6n2c5c31)C(=O)NC4 [staurosporin],"inhibition of expression of the STAT6 reporter gene, control plasmid well",NIH3T3 cells with control plasmid pcDNA3.1 (+),no expression was inhibited at all
same,inhibition of expression of the STAT6 reporter gene (relative luciferase activity),"NIH3T3 cells with plasmid for STAT6 activation-promoting protein of SEQ ID NO: 3, 17, 19, 218, 432 or 472, or nucleotide of SEQ ID NO: 64, FIGS. 1 to 7",inhibited
